Values quoted from earlier work in patent US20090042898A1, “USE OF COMPOUNDS ACTIVE ON THE SIGMA RECEPTOR FOR THE TREATMENT OF MECANICAL ALLODYNIA” (priority 2004, published 2009).
Some entries share one result that the patent states for a list of compounds.

Biological target: sigma receptor
Conditions: subtype not specified, read-out: IC50 value, binding the sigma receptor; cited from earlier work

| SMILES | IC50 |
| --- | --- |
| CN(C)CCC=C1c2ccccc2CCc2ccccc21 [amitriptyline] | ≥ 100 nM |
| Cc1ccsc1C(=CCCN1CCC[C@@H](C(=O)O)C1)c1sccc1C [tiagabine] | ≥ 100 nM |
